In all, about 390,000 compounds went through this assay and about 910 (0.23%) were called active. The inconclusive results got no clear call from the source; some entries with a clear call stand among them for comparison. Calls come from the whole dose curve; as a rule, active = well fitted inhibition curve with a large enough effect; inconclusive = small, poorly fitted or top-dose-only effect; inactive = no such curve, though single readings can be large or run the other way. Potencies beside an inconclusive call are fits to weak or partial responses and may not hold up.
Target: Ubiquitin carboxyl-terminal hydrolase 1 (Homo sapiens) (UniProt O94782)
Assay: Inhibitors of USP1/UAF1: Primary Screen; note: nearly all actives have a fitted effect of over 60% in size
Conditions: recombinant USP1/UAF1, Ub-Rhodamine cleavage fluorescence; series mostly up to 57.1 µM
Procedure, shortened: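 Step one: compound is pinned into 1nM USP1/UAF1 in HEPES pH 7.8 buffer with TCEP. Step two: 15 min room-temperature incubation. Step three: Ub-Rho (150nM final) starts cleavage, tracked by fluorescence over six one-minute reads.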
Potency is the fitted concentration of half-maximal effect.

Amino acid sequences for entries named in this document (tags omitted). A change or cut given only in a name is not applied to a line headed by its entry.
UniProt O94782: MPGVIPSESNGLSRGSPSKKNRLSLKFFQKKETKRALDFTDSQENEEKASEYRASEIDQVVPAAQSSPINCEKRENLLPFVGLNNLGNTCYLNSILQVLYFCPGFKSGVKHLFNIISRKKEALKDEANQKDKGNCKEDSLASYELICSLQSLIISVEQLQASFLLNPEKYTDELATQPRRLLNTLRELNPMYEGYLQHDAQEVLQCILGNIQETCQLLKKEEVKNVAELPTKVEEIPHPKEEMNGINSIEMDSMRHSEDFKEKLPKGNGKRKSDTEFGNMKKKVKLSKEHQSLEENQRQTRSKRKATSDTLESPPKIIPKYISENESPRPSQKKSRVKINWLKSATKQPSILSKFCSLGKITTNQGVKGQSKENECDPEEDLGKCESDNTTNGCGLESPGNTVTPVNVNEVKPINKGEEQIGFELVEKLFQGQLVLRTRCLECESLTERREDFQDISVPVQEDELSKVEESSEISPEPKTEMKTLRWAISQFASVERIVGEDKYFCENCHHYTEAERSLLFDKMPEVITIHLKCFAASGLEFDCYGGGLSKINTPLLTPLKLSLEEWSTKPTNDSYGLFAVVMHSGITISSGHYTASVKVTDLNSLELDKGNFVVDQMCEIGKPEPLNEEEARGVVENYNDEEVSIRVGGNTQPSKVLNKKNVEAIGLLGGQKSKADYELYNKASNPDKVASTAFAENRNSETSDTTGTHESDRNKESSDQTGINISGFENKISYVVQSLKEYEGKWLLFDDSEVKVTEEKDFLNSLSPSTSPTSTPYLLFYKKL

Compound	Potency
Cc1ccc(NC(=O)C2CCCN(S(=O)(=O)c3cccs3)C2)c(C)c1 (stereo unspecified)	inactive
COC(=O)CN1C(C(=O)c2ccccc2)=C(OC(=O)c2ccccc2)c2ccccc2S1(=O)=O	inactive
N#Cc1cccc(-n2nnnc2-c2ccccn2)c1	inactive
Cn1c(=O)sc2cc(NS(=O)(=O)c3ccc(C(C)(C)C)cc3)ccc21	inconclusive: 28.2 µM [inhibitor, partial curve]
CCC1=C(OC(=O)N(CC)CC)N2C(=O)OC(=NCc3ccccc3)[C@]2(C)[C@H]2C1=CC[C@H]1C(=O)N(CC)C(=O)[C@H]12	inconclusive: 0.631 µM [inhibitor, full curve, poor fit]
COC(=O)[C@]1(CC(C)C)N[C@H](c2ccc(SC3CCCCC3)cc2)[C@@H]2C(=O)N(C)C(=O)[C@@H]21	inconclusive: 50.1 µM [inhibitor, partial curve, poor fit]
CCOC(=O)C1CCN(C(=O)c2ccc3c(=O)n4c(nc3c2)CCCCC4)CC1	inconclusive: 6.31 µM [inhibitor, full curve]
Cc1cc(C)cc(NC(=O)[C@H]2O[C@@H]3OC(C)(C)O[C@@H]3[C@H]3OC(C)(C)O[C@H]32)c1	inconclusive: 7.94 µM [inhibitor, single point]
Cc1ccc(N=C2C(=O)Nc3ccccc32)cc1	inconclusive: 50.1 µM [inhibitor, partial curve]
O=C(COc1ccc(Cl)cc1)OCc1cc(=O)n2nc(C3CCCCC3)sc2n1	inconclusive: 79.4 µM [inhibitor, partial curve, poor fit]
C/C=C(/C)C(=O)O[C@@H]1c2cc3c(c(OC)c2-c2c(cc(OC)c(OC)c2OC)[C@@H](OC(C)=O)[C@@H](C)[C@H]1C)OCO3	inactive
Cc1ccc(OC(C)C(=O)N=Nc2c(O)[nH]c3ccc([N+](=O)[O-])cc23)cc1 (stereo unspecified)	inactive
CC(=O)N[C@@H](Cc1c[nH]c2ccccc12)C(=O)NC1CCCc2ccccc21 (stereo partly specified)	inconclusive: 4.47 µM [inhibitor, single point]
COc1cc(Nc2nc3c(S(=O)(=O)c4ccccc4)nnn3c3ccc(Cl)cc23)cc(OC)c1	inactive
Cc1ccc2c(c1)N(C(=O)N1CCC(C(=O)Nc3cccc(F)c3)CC1)CCO2	inactive
O=C(Cc1ccccc1)N/N=C/c1ccc(-c2ccc([N+](=O)[O-])cc2)o1	inconclusive: 35.5 µM [inhibitor, single point]
Cc1cccc(C(=O)Nc2ccc(OCc3cc(=O)n4ccc(C)cc4n3)cc2)c1	inconclusive: 141 µM [inhibitor, partial curve, poor fit]
O=C(COC(=O)c1ccc(Cl)nc1)Nc1ccc2ccccc2c1	inconclusive: 8.91 µM [inhibitor, partial curve]
Cc1ccc(NC(=O)N2CC=C(c3c[nH]c4ccccc34)CC2)cc1Cl	inconclusive: 31.6 µM [inhibitor, partial curve, poor fit]
Cc1cc(C)n(CC2CC(=O)N(c3ccc(Cl)cc3)C2=O)n1 (stereo unspecified)	inconclusive: 0.631 µM [inhibitor, full curve, poor fit]
Cc1nn(C(=O)c2cccs2)c(N)c1-c1ccccc1	inconclusive: 5.62 µM [inhibitor, partial curve, poor fit]

Compound	Potency
COc1cccc(C2C3=C(N=c4s/c(=C\c5ccc(OCC(=O)O)cc5)c(=O)n42)c2ccccc2CC3)c1 (stereo unspecified)	inactive
CCn1c(=O)c([N+](=O)[O-])c(Cl)c2ccccc21	inactive
CC(C)Cc1ccc(S(=O)(=O)N2CCN(C(=O)c3ccco3)CC2)cc1	inconclusive: 1.26 µM [inhibitor, full curve]
COc1ccc(N/N=C(/N=Nc2nc(C)cc(=O)[nH]2)c2ccccc2)cc1	inactive
CC(=O)c1c(C)[nH]c(C(=O)Nc2ccc(C)cc2Br)c1C	inconclusive: 35.5 µM [inhibitor, partial curve, poor fit]
CCC(C)OC(=O)/C(C#N)=C/c1ccc(-c2ccc(Br)cc2)o1 (stereo unspecified)	inconclusive: 39.8 µM [inhibitor, partial curve, poor fit]
Cc1cc(C)c(S(=O)(=O)NCCCN2CCOCC2)cc1Br	inconclusive: 0.891 µM [inhibitor, full curve, poor fit]
C[C@H](CO)N1C[C@H](C)[C@@H](CN(C)S(=O)(=O)c2ccc(F)cc2)Oc2ccc(NC(=O)Nc3ccc(C(F)(F)F)cc3)cc2C1=O	inconclusive: 50.1 µM [inhibitor, partial curve, poor fit]
Cc1ccc(C(c2sc3nc(-c4ccco4)nn3c2O)N2CCN(c3ccc(F)cc3)CC2)cc1 (stereo unspecified)	inconclusive: 20 µM [inhibitor, partial curve, poor fit]
Cc1oc(-c2cccc(Cl)c2)nc1Cn1c(SCc2ccc(F)cc2)nc2cccnc21	inconclusive: 39.8 µM [inhibitor, single point]
COc1ccc(NC(=S)Nc2ccc(OCc3ccccc3)cc2)cc1OC	inactive
COc1cc2c(cc1OC)C(COc1cc(C)cc(C)c1)N(C(=O)C(C)(C)C)CC2 (stereo unspecified)	inconclusive: 44.7 µM [inhibitor, partial curve, poor fit]
O=C(O)c1ccccc1/C=N/Nc1ccc(S(=O)(=O)N2CCOCC2)cc1[N+](=O)[O-]	inconclusive: 35.5 µM [inhibitor, partial curve]
Oc1c(Br)cc(Br)cc1C=NCc1ccc(F)cc1	inconclusive: 31.6 µM [inhibitor, partial curve]
Cc1cccc(OCC(=O)Nc2c(C(=O)Nc3ccc(F)cc3)oc3ccccc23)c1	inconclusive: 7.08 µM [inhibitor, full curve, poor fit]
CSc1ccc(C2c3c(-c4ccccc4O)n[nH]c3C(=O)N2Cc2ccncc2)cc1 (stereo unspecified)	inconclusive: 0.447 µM [inhibitor, full curve, poor fit]
O=C(CSc1ccnc(=O)[nH]1)NCc1ccc(F)cc1	inactive
O=C(c1cccc(Cl)c1)N1CCC2CC1c1cc(N3CCOCC3)ccc12 (stereo unspecified)	inconclusive: 44.7 µM [inhibitor, partial curve, poor fit]
Cc1ccc(S(=O)(=O)Nn2c(O)c(C=C3N=c4ccccc4=N3)sc2=S)cc1	inactive
COc1ccc(S(=O)(=O)Nc2cccc(-c3ccc(N4CCCCCC4)nn3)c2)cc1OC	inconclusive: 79.4 µM [inhibitor, partial curve, poor fit]
N#CC1CC(c2ccc([N+](=O)[O-])cc2)=NN1c1ccc([N+](=O)[O-])cc1 (stereo unspecified)	inconclusive: 35.5 µM [inhibitor, partial curve]

Compound	Potency
C=CCn1c(N)c(C(=O)OCC(C)C)c2nc3ccccc3nc21	inconclusive: 31.6 µM [inhibitor, partial curve]
COc1ccc(C)cc1NC(=O)CSc1nc(=O)n(Cc2ccco2)c2c1CCC2	inconclusive: 50.1 µM [inhibitor, partial curve, poor fit]
c1cc2ccc3ccc(-n4cnnn4)c4ccc(c1)c2c34	inconclusive: 50.1 µM [inhibitor, partial curve, poor fit]
O=C1C2C3C=CC(C3)C2C(=O)N1c1ccc2c(c1)OCO2 (stereo unspecified)	inactive
CC1=CC(C)(C)Nc2ccc(OC(=O)C(C)N3C(=O)c4ccccc4C3=O)cc21 (stereo unspecified)	inconclusive: 31.6 µM [inhibitor, partial curve]
CN1C(=O)c2ccccc2Sc2ccc(NC(=O)Cc3ccc(Cl)cc3)cc21	inconclusive: 35.5 µM [inhibitor, single point]
Cc1cccc(N(C)S(=O)(=O)c2nnc(NC(=O)C(C)Oc3ccccc3)s2)c1 (stereo unspecified)	inconclusive: 0.708 µM [inhibitor, full curve, poor fit]
COc1ccc(C2/C=C\CN3CCC[C@H]3C(=O)N2Cc2ccc(F)cc2)cc1 (stereo partly specified)	inconclusive: 0.251 µM [inhibitor, full curve, poor fit]
C=CCNC1=C(Cl)C(=O)c2ccccc2C1=O	inconclusive: 25.1 µM [inhibitor, partial curve]
c1ccc(N2CCOCC2)c(Nc2nc3ccccc3n3cnnc23)c1	inconclusive: 44.7 µM [inhibitor, partial curve, poor fit]
COC(=O)/C=C1\SC(=NC(=O)c2ccc(-c3ccccc3)cc2)NC1=O	inconclusive: 50.1 µM [inhibitor, partial curve, poor fit]
Cc1nc2nc(NCc3ccccc3Cl)[nH]n2c(=O)c1Cc1ccccc1	inconclusive: 1.78 µM [inhibitor, partial curve, poor fit]
CCOC(=O)C(C)Sc1nnc2cc(C)c3ccccc3n12 (stereo unspecified)	inactive
Cn1c2ccccc2c2cc(/C=N/NC(=O)c3cc(O)cc(O)c3)ccc21	inactive
COc1cccc(NC(=O)CSc2ccc3nnc(-c4ccncc4)n3n2)c1	inconclusive: 39.8 µM [inhibitor, partial curve]
Cc1nc(C)n(C(C)CNS(=O)(=O)c2ccc(C)c(C)c2)n1 (stereo unspecified)	inconclusive: 6.31 µM [inhibitor, partial curve]
CCN(CC)S(=O)(=O)c1cc(NC(=O)c2ccc(Br)s2)ccc1C	inconclusive: 4.47 µM [inhibitor, single point]
CC1(C)Cc2ccccc2C2=NNC(=O)C2=N1	inconclusive: 28.2 µM [inhibitor, partial curve]
CN(CC(=O)Nc1ccc(F)cc1F)S(=O)(=O)c1cccc2nsnc12	inconclusive: 2.24 µM [inhibitor, full curve, poor fit]

From PubChem BioAssay AID743255 (National Center for Advancing Translational Sciences (NCATS), 2014)
